The target of the test is Flag-tagged USP7 truncation, TRAF domain. Description: co-IP; KYSE150 cells transfected with Flag-tagged USP7 truncations (TRAF, CAT, TUD); immunoprecipitation, PD-L1 or ANXA1 detected by western blot.

No constants are given. Whether binding was seen depends on the method and setting. Binding seen in cells or lysates may run through a third protein. A result given as binding can be weak or reduced; the word gives no strength.

One molecule from PMC11955112 can be followed below.

B1: annexin A1 (ANXA1) (protein, UniProt P04083 1-346)
chain: MAMVSEFLKQAWFIENEEQEYVQTVKSSKGGPGSAVSPYPTFNPSSDVAALHKAIMVKGVDEATIIDILTKRNNAQRQQIKAAYLQETGKPLDETLKKALTGHLEEVVLALLKTPAQFDADELRAAMKGLGTDEDTLIEILASRTNKEIRDINRVYREELKRDLAKDITSDTSGDFRNALLSLAKGDRSEDFGVNEDLADSDARALYEAGERRKGTDVNVFNTILTTRSYPQLRRVFQKYTKYSKHDMNKVLDLELKGDIEKCLTAIVKCATSKPAFFAEKLHQAMKGVGTRHKALIRIMVSRSEIDMNDIKAFYQKMYGISLCQAILDETKGDYEKILVALCGGN
Take B1: the binding entry is recorded as “binds”.
